Measurements: patent US7745465B2, “Method of enhancing cellular production of molecular chaperone, hydroxylamine derivatives useful for enhancing the chaperone production and the preparation thereof” (CytRx Corporation, priority 1995, dated 2010)
Some results were stated once for a whole list of compounds, not compound by compound.

Test system: HSP-70
Experiment: Quantitative RT-PCR of hsp70 in the thoracic aorta of rats with genetic hypertension
Assay type: in vivo, rat
Conditions: daily oral treatment (20 mg/kg 8 days or 5 mg/kg 20 days)

Structure (SMILES)	hsp-70 level in the thoracic aorta higher than in the control animals
Cl.OC(CON=C(Cl)c1cccs1)CN1CCCCC1 (stereo not drawn) [Example 1, N-[2-hydroxy-3-(1-piperidinyl)propoxyl]-2-thiophenecarboximidoyl chloride monohydrochloride]	more than 50%
O=C(O)/C=C\C(=O)O.OC(CON=C(Cl)c1cccnc1)CN1CCCCC1 (stereo not drawn) [N-[2-hydroxy-3-(1-piperidinyl)-propoxy]3-pyridinecarboximidoyl chloride maleate]	more than 50%
Cl.OC(CON=C(Cl)c1ccccc1)CN1CCCCC1 (stereo not drawn) [N-[2-hydroxy-3-(1-piperidinyl)-propoxy]-benzimidoyl-chloride monohydrochloride]	more than 50%
